Experimental data from article PMC10600106.
No constants are given. Whether binding was seen depends on the method and setting. In cells and extracts the contact can be indirect. Some entries that bind do so weakly or less than the wild type.

Molecular target: T1, Zinc finger protein 281 (ZNF281) (human (endogenous in HLE)) (UniProt Q9Y2X9)
T1 sequence: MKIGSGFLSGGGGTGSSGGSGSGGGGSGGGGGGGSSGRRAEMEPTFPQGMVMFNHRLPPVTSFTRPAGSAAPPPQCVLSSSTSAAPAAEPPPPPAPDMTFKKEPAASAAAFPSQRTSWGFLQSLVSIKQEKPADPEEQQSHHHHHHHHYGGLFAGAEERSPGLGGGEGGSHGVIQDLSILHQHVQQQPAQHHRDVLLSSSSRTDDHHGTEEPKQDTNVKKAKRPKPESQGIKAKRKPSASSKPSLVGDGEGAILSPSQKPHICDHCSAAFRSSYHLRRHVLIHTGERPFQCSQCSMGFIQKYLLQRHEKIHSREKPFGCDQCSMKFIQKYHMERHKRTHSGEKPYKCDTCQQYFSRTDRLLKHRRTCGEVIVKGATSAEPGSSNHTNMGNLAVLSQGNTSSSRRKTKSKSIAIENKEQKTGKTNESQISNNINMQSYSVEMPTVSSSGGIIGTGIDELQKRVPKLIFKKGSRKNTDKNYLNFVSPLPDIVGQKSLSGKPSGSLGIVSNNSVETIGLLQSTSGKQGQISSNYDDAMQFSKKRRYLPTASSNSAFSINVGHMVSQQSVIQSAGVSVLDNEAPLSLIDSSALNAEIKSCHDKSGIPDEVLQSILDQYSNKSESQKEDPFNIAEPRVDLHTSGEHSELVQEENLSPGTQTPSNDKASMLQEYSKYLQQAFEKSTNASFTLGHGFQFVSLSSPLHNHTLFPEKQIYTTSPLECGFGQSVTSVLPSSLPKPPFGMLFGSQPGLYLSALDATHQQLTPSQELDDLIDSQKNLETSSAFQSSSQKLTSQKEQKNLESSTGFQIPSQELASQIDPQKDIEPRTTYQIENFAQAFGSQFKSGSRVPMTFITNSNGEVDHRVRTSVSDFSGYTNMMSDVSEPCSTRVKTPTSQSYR
Assay: co-IP; endogenous proteins from HLE cells in RIPA buffer (50 mM Tris-Cl pH 7.5, 150 mM NaCl, 0.2 mM EDTA, 2% NP-40); precipitated with anti-ZNF281 or control IgG and Protein A/G PLUS-Agarose at 4 °C overnight; immunoblot

B1: nuclear respiratory factor 1 (NRF1) (protein, UniProt Q16656 1-503)
chain: MEEHGVTQTEHMATIEAHAVAQQVQQVHVATYTEHSMLSADEDSPSSPEDTSYDDSDILNSTAADEVTAHLAAAGPVGMAAAAAVATGKKRKRPHVFESNPSIRKRQQTRLLRKLRATLDEYTTRVGQQAIVLCISPSKPNPVFKVFGAAPLENVVRKYKSMILEDLESALAEHAPAPQEVNSELPPLTIDGIPVSVDKMTQAQLRAFIPEMLKYSTGRGKPGWGKESCKPIWWPEDIPWANVRSDVRTEEQKQRVSWTQALRTIVKNCYKQHGREDLLYAFEDQQTQTQATATHSIAHLVPSQTVVQTFSNPDGTVSLIQVGTGATVATLADASELPTTVTVAQVNYSAVADGEVEQNWATLQGGEMTIQTTQASEATQAVASLAEAAVAASQEMQQGATVTMALNSEAAAHAVATLAEATLQGGGQIVLSGETAAAVGALTGVQDANGLVQIPVSMYQTVVTSLAQGNGPVQVAMAPVTTRISDSAVTMDGQAVEVVTLEQ
  binding: binds
